Results as given in PubChem BioAssay AID504847 (National Center for Advancing Translational Sciences (NCATS), 2011).
The whole screen tested about 400,000 compounds, of which about 3,700 (0.93%) were called active. Inconclusive results, whose numbers are uncertain, are shown with a selection of clear calls. Calls come from the whole dose curve; as a rule, active = well fitted inhibition curve with a large enough effect; inconclusive = small, poorly fitted or top-dose-only effect, or another doubt; inactive = no such curve, though single readings can be large or run the other way. Potencies beside an inconclusive call are fits to weak or partial responses and may not hold up.

The chains behind the UniProt entries cited, without tags or fusion partners. Where a name states a change or a piece, a line headed by the entry shows the natural chain unless it says otherwise.
UniProt P11473: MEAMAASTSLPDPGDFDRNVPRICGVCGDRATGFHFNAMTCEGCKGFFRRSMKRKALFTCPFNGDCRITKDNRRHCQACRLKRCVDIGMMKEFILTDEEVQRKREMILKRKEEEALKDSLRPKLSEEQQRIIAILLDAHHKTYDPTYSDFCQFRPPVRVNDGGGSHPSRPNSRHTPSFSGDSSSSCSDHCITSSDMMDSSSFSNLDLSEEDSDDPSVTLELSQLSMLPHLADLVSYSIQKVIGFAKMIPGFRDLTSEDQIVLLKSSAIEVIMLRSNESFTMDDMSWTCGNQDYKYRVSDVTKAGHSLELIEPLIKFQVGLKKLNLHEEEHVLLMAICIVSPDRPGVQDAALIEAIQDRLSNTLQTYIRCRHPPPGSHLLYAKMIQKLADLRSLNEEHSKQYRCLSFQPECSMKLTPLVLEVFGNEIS

The molecules below were run against Vitamin D3 receptor (Homo sapiens) (UniProt P11473) (assay: Inhibitors of the vitamin D receptor (VDR): qHTS). Settings: VDR-SRC2-3 peptide fluorescence polarization, 2 h; max response, negative = inhibition: hits give low values.
Outline: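 Measured by FP: displacement of SRC2-3 coactivator peptide from VDR by library compounds, following a two-hour ambient incubation.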
% is set by controls: 0 for no effect and ±100 for the full control effect; potency is the fitted concentration of half-maximal effect.

Potency, active:
O=C(/C=C/c1ccccc1)c1ccc(O)cc1O 25.1 µM
Cc1ccc(CN2C(=O)C(=O)c3cc(Br)cc(C)c32)cc1 17.8 µM
COc1ccc(-n2nnc3c(SC(C(C)=O)C(=O)N(C)C)ncnc32)cc1 (stereo unspecified) 7.08 µM
CCc1ccc(S(=O)(=O)/N=C2/C=C(Sc3ncn[nH]3)C(=O)c3ccccc32)cc1 25.1 µM
Cc1nnc(Sc2cc(NCCO)c([N+](=O)[O-])c3nonc23)s1 22.4 µM
Cc1ccc(C(C2C(=O)CC(C)(C)CC2=O)C2C(=O)CC(C)(C)CC2=O)s1 39.8 µM
N#C/C(=C\c1cccc(Oc2ccccc2)c1)C(=O)N1CCOCC1 44.7 µM
CCOc1ccc(/C=C/C(=O)c2cc(Br)ccc(=O)c2O)cc1 50.1 µM

Potency, inconclusive:
Cn1c(SCC(=O)c2ccc3c(c2)OCO3)nnc1C1COc2ccccc2O1 (stereo unspecified) 70.8 µM [inhibitor, single point]
C=CS(=O)(=O)N(Cc1ccc(Cl)c(Cl)c1)C[C@@H](O)CO 89.1 µM [inhibitor, single point]
CC(=O)Nc1cccc(C(=O)O)n1 70.8 µM [inhibitor, partial curve, poor fit]
COC(=O)c1ccc(NC(=O)c2c(Br)cnn2C)cc1 89.1 µM [inhibitor, single point]
c1ccc(C[n+]2cccc(-c3ccccc3)c2)cc1 2.82 µM [inhibitor, full curve, poor fit]
CN(CC(=O)Nc1ccccc1Cl)C(=O)CCc1nc2ccccc2c(=O)[nH]1 89.1 µM [inhibitor, partial curve, poor fit]
COc1ccc(S(=O)(=O)Nc2cc3c(C(C)=O)c(C)oc3c3ccccc23)cc1 1.58 µM [inhibitor, partial curve, poor fit]
CCn1c(C)c(CS(=O)(=O)c2ccccc2)[nH]c1=O 22.4 µM [inhibitor, full curve, poor fit]
CCOC(=O)c1c(C)c(C(=O)NCc2ccco2)c(C)n1Cc1ccccc1 79.4 µM [inhibitor, single point]
NNC(=O)CSCc1ccc(Cl)cc1Cl 28.2 µM [inhibitor, partial curve, poor fit]
Cc1ccc(OCCOC(=O)c2nc3nccc(C)n3n2)cc1 39.8 µM [inhibitor, single point]
Cc1cc(NS(=O)(=O)c2ccc(NC(=O)COc3ccc(Br)cc3)cc2)nc(C)n1 31.6 µM [inhibitor, partial curve, poor fit]
O=C(O)CC1CCC(=C(Cl)Cl)C1 (stereo unspecified) 79.4 µM [inhibitor, partial curve]
O=S(=O)(Nc1c(O)ccc2ccccc12)c1ccccc1 56.2 µM [inhibitor, partial curve, poor fit]
O=C(CNc1ccc(Br)cc1)c1ccc(Br)s1 70.8 µM [inhibitor, single point]
O=C1CC(=O)N(Cc2ccco2)C(=O)N1 79.4 µM [inhibitor, single point]
O=C(COc1ccc([N+](=O)[O-])cc1)NNC(=S)NC(=O)c1ccc(Br)cc1 89.1 µM [inhibitor, single point]
Cc1nc([N+](=O)[O-])c(Sc2nc3ccccc3n2C)n1Cc1ccccc1 100 µM [inhibitor, single point]
O=S(=O)(c1cccc(NC(=S)NCc2ccco2)c1)N1CCOCC1 70.8 µM [inhibitor, single point]
CCOC(=O)Cn1nc(C)c(NC(=O)COc2ccc(C)c(C)c2)c1C 12.6 µM [inhibitor, full curve, poor fit]
Cc1cc(C)cc(-n2ncc3c2CCCC3NC(=O)CN2CCCC2=O)c1 (stereo unspecified) 39.8 µM [inhibitor, single point]
CC(=O)c1c(C)[nH]c(C(=O)CSc2nnc(-c3cccs3)n2Cc2ccccc2)c1C 50.1 µM [inhibitor, partial curve]
COc1cc(-c2ccccc2)[nH]c(=S)n1 89.1 µM [inhibitor, single point]
CCOc1cc(S(=O)(=O)N2CCCC2)ccc1Cl 89.1 µM [inhibitor, single point]
COc1ccc(-c2csc(NNC3=NCCCCC3)n2)cc1 22.4 µM [inhibitor, single point]
Cc1ccoc1C(=O)NCCCNC(=O)c1occc1C 56.2 µM [inhibitor, partial curve, poor fit]

3 compounds from above, sorted by molar mass, ascending:
Potency, inconclusive:
CCOc1cc(S(=O)(=O)N2CCCC2)ccc1Cl 89.1 µM [inhibitor, single point]
Cc1nc([N+](=O)[O-])c(Sc2nc3ccccc3n2C)n1Cc1ccccc1 100 µM [inhibitor, single point]
CCOC(=O)c1c(C)c(C(=O)NCc2ccco2)c(C)n1Cc1ccccc1 79.4 µM [inhibitor, single point]

Next part.

Max response, negative = inhibition, inactive:
CCN(C(=O)c1cc2c(=O)n(CC)c3ccccc3c2s1)c1cccc(C(F)(F)F)c1 -12%
COc1ccccc1-n1c(CNC(=O)c2cccs2)n[nH]c1=S -8.72%
CCOc1ccc(-c2nnc(SCC(=O)NC(C)CC)nc2-c2ccc(OCC)c(OC)c2)cc1OC (stereo unspecified) 18.5%
Cc1ccc(NC(=O)c2ccc(C)cc2)cc1 10.1%
CC(=O)N1CCN(c2ccc([N+](=O)[O-])cc2)CC1 -1.97%
CCc1nc2oc(C(=O)c3ccccc3)c(N)c2c2c1COC(C)(C)C2 2.28%
CCC(C)NC(=O)CSc1nc(-c2cccs2)cc(C(F)(F)F)n1 (stereo unspecified) -2.14%
O=C(NCCCc1nc2ccccc2n1CCCCOc1ccccc1)C1CCCCC1 -13.2%
C[C@]12CC[C@@H]3c4ccc(O)cc4CC[C@H]3[C@@H]1CCC2OC(=O)CCC1CCCC1 (stereo partly specified) 1.2%
CCN(CC1CCCN(CCc2cccc(OC)c2)C1)C(=O)C=C(C)C (stereo unspecified) 0.454%
O=C(O)c1csc(-c2cccs2)n1 0.606%
CCC(=O)N1CCc2cc(S(=O)(=O)CCC(=O)N3CCN(c4cccc(Cl)c4)CC3)ccc21 -20.9%
